Experimental data as given in PubChem BioAssay AID720711 (National Center for Advancing Translational Sciences (NCATS), 2013).
Among all 360,000 compounds or so, about 290 (0.081%) were called active. The inconclusive results got no clear call from the source; some entries with a clear call stand among them for comparison. Calls come from the whole dose curve; as a rule, active = well fitted activation curve with a large enough effect; inconclusive = small, poorly fitted or top-dose-only effect; inactive = no such curve, though single readings can be large or run the other way. Potencies of inconclusive entries are doubtful fits and often do not repeat.

Chains of the proteins cited; added tags and fusions are not shown.
UniProt Q8WZA2, whole entry, looked up: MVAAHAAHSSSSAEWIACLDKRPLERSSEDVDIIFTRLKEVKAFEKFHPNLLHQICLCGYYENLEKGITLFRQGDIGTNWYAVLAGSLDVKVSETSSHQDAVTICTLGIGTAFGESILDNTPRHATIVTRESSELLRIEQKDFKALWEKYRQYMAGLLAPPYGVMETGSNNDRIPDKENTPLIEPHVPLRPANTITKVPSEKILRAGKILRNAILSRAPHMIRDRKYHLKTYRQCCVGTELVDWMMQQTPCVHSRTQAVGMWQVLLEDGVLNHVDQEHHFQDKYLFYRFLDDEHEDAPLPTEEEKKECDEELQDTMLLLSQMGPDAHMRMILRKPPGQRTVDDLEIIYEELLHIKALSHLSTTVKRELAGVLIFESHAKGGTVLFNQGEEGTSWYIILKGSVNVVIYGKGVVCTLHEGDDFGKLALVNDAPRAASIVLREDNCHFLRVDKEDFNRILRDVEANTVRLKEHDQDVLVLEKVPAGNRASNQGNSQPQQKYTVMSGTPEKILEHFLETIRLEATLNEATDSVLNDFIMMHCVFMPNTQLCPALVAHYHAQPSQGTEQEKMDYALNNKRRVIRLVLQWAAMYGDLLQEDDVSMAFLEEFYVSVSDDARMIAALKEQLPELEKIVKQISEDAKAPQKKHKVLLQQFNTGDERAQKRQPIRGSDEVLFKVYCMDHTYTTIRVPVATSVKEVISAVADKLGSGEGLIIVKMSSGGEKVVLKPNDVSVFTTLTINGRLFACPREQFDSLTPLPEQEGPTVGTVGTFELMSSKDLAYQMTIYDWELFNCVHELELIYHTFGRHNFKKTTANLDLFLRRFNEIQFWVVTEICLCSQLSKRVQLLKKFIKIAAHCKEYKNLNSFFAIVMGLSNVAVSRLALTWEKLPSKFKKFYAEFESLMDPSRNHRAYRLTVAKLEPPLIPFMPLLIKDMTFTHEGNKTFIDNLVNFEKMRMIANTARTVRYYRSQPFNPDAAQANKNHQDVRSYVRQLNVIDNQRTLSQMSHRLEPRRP

target: Rap guanine nucleotide exchange factor 4 (Homo sapiens) (UniProt Q8WZA2); experiment: qHTS for Agonist of cAMP-regulated guanine nucleotide exchange factor 4 (EPAC2): primary screen; settings: biochemical qHTS; Potency: EPAC2 activation unless noted; activation: at 154 µM (top of the series), 100% = 6.5 mM cAMP response unless noted; note: nearly all actives have a fitted effect of over 50% in size
Method in brief: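 Nucleotide exchange monitored as fluorescence drop when BODIPY-GDP leaves Rap1B. Reaction: 100 nM EPAC2, 250 nM RAP1B-BODIPY-GDP, 50 uM GDP, room temperature, kinetic read over 30 min. Activity expressed relative to 6.5 mM cAMP.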
Potency is the fitted concentration of half-maximal effect.

Q: For `CC(=O)N/N=C\c1cccc(OC/C=C/c2ccccc2)c1`, which Potency is on record?
A: inactive

Q: `O=C(O)/C=C/C(=O)NNC(=O)c1ccccc1Br` was tested. Which Potency did it give?
A: inactive

Q: `CC(C)(C)c1cc(C(c2cccnc2)N2CCN(CCO)CC2)cc(C(C)(C)C)c1O` (stereo not drawn) was tested. Which Potency did it give?
A: inconclusive: 100 µM [activator, partial curve]

Q: With `O=C(COC(=O)C(O)c1ccccc1)c1ccc2c(c1)OCCO2` (stereo not drawn) as the molecule, how does the Potency read?
A: inconclusive: 20 µM [activator, full curve]

Q: How did the Potency turn out when `CN(Cc1ccccc1)C(=O)c1[nH]cnc1C(=O)Nc1ccc(Cl)cc1` was run?
A: inconclusive: 15.8 µM [activator, partial curve]

Q: For `O=C(CCc1nnc2ccc(N3CCCC3)nn12)Nc1cc(F)ccc1F`, which Potency is on record?
A: inactive

Q: How did the Potency turn out when `O=C(O)c1cccc(NC(=S)NC(NC(=O)c2ccccc2[N+](=O)[O-])C(Cl)(Cl)Cl)c1` (stereo not drawn) was run?
A: inactive

Q: Which Potency does the source give for `O=C(Nc1nc(-c2cc3ccccc3oc2=O)cs1)c1ccco1` here?
A: inconclusive: 56.2 µM [activator, full curve, poor fit]

Q: Which Potency does the source give for `COCCNC(=S)Nc1ccc2nsnc2c1` here?
A: inactive

Q: For `c1ccc(NN=C(c2ccccc2)c2cccs2)cc1`, which Potency is on record?
A: inactive

Q: How did the Potency turn out when `Cn1c(=O)c2[nH]c(N3CCN(c4ccccc4)CC3)nc2n(C)c1=O` was run?
A: inconclusive: 28.2 µM [activator, partial curve]

Q: Which activation does the source give for `CC(C)C[C@H](N)c1nnc(S(=O)(=O)Cc2ccc(F)cc2)o1` here?
A: inconclusive: 45.4% [activator] [at 15.6 µM, 100% = 6.5 mM cAMP response]

Q: For `CC(=O)[C@]1(O)Cc2c(O)c3c(c(O)c2[C@@H](O[C@H]2C[C@H](N)[C@H](O)[C@H](C)O2)C1)C(=O)c1ccccc1C3=O`, which Potency is on record?
A: active: 112 µM

Q: For `O=C(OCn1ncc(Br)c(Br)c1=O)c1ccc(F)cc1`, which Potency is on record?
A: inactive

Q: Which Potency does the source give for `CN1C(=O)/C(=C\c2ccc(-c3ccccc3)o2)SC1=S` here?
A: inconclusive: 56.2 µM [activator, partial curve]

Q: For `CCN(CC)c1ccc(SS(=O)(=O)O)cc1`, which Potency is on record?
A: inconclusive: 79.4 µM [activator, partial curve]

Q: With `CSCCC(C(=O)O)N1C(=O)c2ccc(C(=O)O)cc2C1=O` (stereo not drawn) as the molecule, how does the Potency read?
A: active: 10 µM

Q: For `O=C(N/N=C\c1c(O)ccc2ccccc12)c1cncc(Br)c1`, which Potency is on record?
A: inconclusive: 20 µM [activator, full curve]

Q: With `Cc1cc2oc(=O)c3c(c2cc1OC(=O)c1ccco1)CCCC3` as the molecule, how does the activation read?
A: inconclusive: 40.8% [activator] [at 15.6 µM, 100% = 6.5 mM cAMP response]

Q: For `CC(C)COc1ccc(CSCCNC(=S)Nc2ccccc2)cc1`, which Potency is on record?
A: inconclusive: 126 µM [activator, single point]

Q: For `CNC(=O)N(C1=NCC(C)(C)S1)c1ccc(F)c(Cl)c1`, which Potency is on record?
A: inconclusive: 112 µM [activator, partial curve, poor fit]

Q: For `CNC(=O)c1c(NC(=O)c2ccc(S(=O)(=O)N3CCCc4ccccc43)cc2)sc2c1CCN(C)C2`, which Potency is on record?
A: inconclusive: 100 µM [activator, partial curve]

Q: With `O=C(Nc1ccc2oc(-c3ccncc3)nc2c1)c1ccc2c(c1)OCCO2` as the molecule, how does the Potency read?
A: inconclusive: 44.7 µM [activator, partial curve]

Q: With `CC(=O)Nc1ccc(C(=O)N(C)C(C(=O)Nc2ccccc2)c2ccccn2)cc1` (stereo not drawn) as the molecule, how does the Potency read?
A: inconclusive: 112 µM [activator, single point]

Q: `CCOc1ccc(NC(=O)CN(C)CC(=O)Nc2ccccc2C#N)cc1OCC` was tested. Which Potency did it give?
A: inconclusive: 126 µM [activator, single point]

Q: For `O=C1C(Cc2ccccc2)SC(=Nc2ccccc2)N1c1ccccc1` (stereo not drawn), which Potency is on record?
A: inconclusive: 126 µM [activator, single point]

Q: Which Potency does the source give for `C/C(=N\NC(=O)c1cccs1)C(C)(C)C` here?
A: inactive

Q: With `Cc1ccc(Cl)cc1NC(=O)c1ccccc1OCC(=O)Nc1ccc(Cl)cc1` as the molecule, how does the activation read?
A: inconclusive: 48.4% [activator]

Q: How did the Potency turn out when `C#Cc1ccc([C@@H]2C=C(C(=O)OCC=C)O[C@H](OCc3ccc(CO)cc3)C2)cc1` was run?
A: inconclusive: 35.5 µM [activator, full curve, poor fit]

Q: `COc1ccccc1Oc1ncnc2c1cnn2-c1ccccc1` was tested. Which Potency did it give?
A: inconclusive: 126 µM [activator, partial curve]

Q: Which Potency does the source give for `O=C(O)c1cccc(NS(=O)(=O)c2ccc3c4c(cccc24)C(=O)N3)c1` here?
A: inconclusive: 112 µM [activator, partial curve]

Q: Which Potency does the source give for `CC(C)C(NC(=O)c1ccccc1)C(=O)OCn1nnc2ccccc2c1=O` (stereo not drawn) here?
A: inconclusive: 126 µM [activator, single point]

Q: How did the Potency turn out when `CCN1C(=O)N(C)[C@@H](c2ccccc2)C(C(=O)OC)=C1C` was run?
A: inactive

Q: `CCOC(=O)N1CCN(c2ccc(S(=O)(=O)N(Cc3ccccc3)Cc3ccccc3)cn2)CC1` was tested. Which activation did it give?
A: inconclusive: 39.7% [activator] [at 15.6 µM, 100% = 6.5 mM cAMP response]

Q: How did the activation turn out when `COc1cc(NC(=O)C2CCCCC2)c(OC)cc1NC(=O)CN1CCCCC1` was run?
A: inconclusive: 38.3% [activator] [at 15.6 µM, 100% = 6.5 mM cAMP response]

Q: How did the Potency turn out when `CN1C2CCC1/C(=C/c1cccn1C)C(=O)/C2=C\c1cccn1C` was run?
A: inconclusive: 112 µM [activator, single point]

Q: How did the Potency turn out when `CCCCN(C)C(=O)c1ccc(Nc2nc(C(N)Cc3ccc(C(F)(F)F)cc3)cs2)nc1` (stereo not drawn) was run?
A: inactive

Q: Which Potency does the source give for `COc1cc(NC(=O)CN2C(=O)NC(c3ccccc3)(c3ccccc3)C2=O)cc(OC)c1` here?
A: inconclusive: 10 µM [activator, partial curve]

Q: For `O=[N+]([O-])CC(=Nc1ccc(Cl)cc1)N/N=C\c1oc(O)c2ccccc12`, which Potency is on record?
A: inactive

Q: With `Nc1c(C(=O)c2ccccc2)sc2nsc(SCCN3CCCC3)c12` as the molecule, how does the Potency read?
A: inconclusive: 112 µM [activator, partial curve]

Q: How did the Potency turn out when `CN1C(=O)c2cccc3c(N)ccc(c23)C1=O` was run?
A: inconclusive: 126 µM [activator, partial curve, poor fit]

Q: With `Nc1ncnc2c1nc(Sc1ccc(Cl)cc1)n2[C@@H]1O[C@@H]2COP(=O)(O)O[C@H]2[C@H]1O` as the molecule, how does the activation read?
A: inconclusive: 100% [activator]

Q: `Cc1cc(C)c(C)c(OCCNCc2ccccc2)c1` was tested. Which Potency did it give?
A: inactive
